Test system: α-PVP antibody
Assay: α-PVP/MDPV ELISA kit validation assay (Example 11)
Type: binding
Settings: N = 20, samples diluted 1:50
Procedure: A microtitre plate was precoated with α-PVP antibody. α-PVP (antigen), if present in the sample competes with the horseradish peroxidase labelled α-PVP (enzyme labelled antigen) for a limited number of antibody sites on the microtitre plate. After incubation at room temperature to allow a competition reaction to take place, the microtitre plate was washed to remove excess reagents. The enzyme substrate was added. After an incubation period to allow maximum colour development, the colour reaction was stopped by the addition of acid. This produces a colour change from blue to yellow, and the absorbances are read at 450 nm. […]
b) The microtitre plate was gently tapped from side to side for a few seconds. c) The microtitre plate was covered with a plate sealer before incubating for 30 minutes at room temperature (+15° C. to +25° C.) in the dark. d) The plate was inverted and the liquid tapped out liquid. e) The plate was washed 6 times with diluted wash buffer (ensuring all wells were filled), over a 10-15 minute period. […] A colour change from blue to yellow resulted. h) The optical density was measured at 450 nm within 10 minutes of stopping the colour reaction. […]
Equally, pyrrolidinopentiothiophenone and mdpbp were assessed in the same run; and mdppp and α-pyrrolidinopropiophenone were assessed in the same run. […]

CCCC(C(=O)c1ccccc1)N1CCCC1 (stereo not drawn) [α-PVP, α-Pyrrolidinovalerophenone]
limit of detection - Urine (urine): 3.1 ng/mL | limit of detection - Whole Blood (whole blood): 1.8 ng/mL
